Laboratory results reported in patent publication US20180353501A1 (Arvinas, Inc., priority 2017, published 2018).
Some of these results come from one statement about several compounds together.

The chains behind the UniProt entries cited, without tags or fusion partners.
UniProt Q16539, whole entry: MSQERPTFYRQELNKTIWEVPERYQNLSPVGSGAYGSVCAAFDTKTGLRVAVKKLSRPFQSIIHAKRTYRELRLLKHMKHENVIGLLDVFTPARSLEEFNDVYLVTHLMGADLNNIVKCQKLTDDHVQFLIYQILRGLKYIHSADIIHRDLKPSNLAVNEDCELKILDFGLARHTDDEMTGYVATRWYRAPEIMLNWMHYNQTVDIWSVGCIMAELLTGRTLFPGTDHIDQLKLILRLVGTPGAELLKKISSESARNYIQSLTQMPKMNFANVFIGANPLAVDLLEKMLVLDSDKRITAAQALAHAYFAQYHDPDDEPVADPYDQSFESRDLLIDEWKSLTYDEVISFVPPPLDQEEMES

Key:
[1] = biological target: T1, p38α (Homo sapiens, UniProt Q16539); assay: Western blot survey of p38 isoform degradation in MDA-MB-231 cells (incl. proteasome rescue, CHX chase, washout); format: cell-based; details: read-out: p38α DC50 (concentration at which half-maximal degradation is achieved)
T1 construct: selectively degrades p38α, whereas exemplary PROTAC 46 (10-atom linker, phenyl attachment) selectively degrades p38δ in MDA-MB-231 cells; endogenous in cells; host or cells: MDA-MB-231
Procedure: (§1) FIGS. 11A and 11B. Survey of p38 isoform degradation with foretinib-based VHL PROTACs (related to FIGS. 9A-9C and Table 13). (A) Western blots of amide series PROTACs tested in increasing concentrations (0.025, 0.100, 0.250, 1.0, 5.0 μM) on MDA-MB-231 cells, in duplicate. (B) Same as in (A) but with the phenyl series PROTACs. Summary table of the DC50 (concentration at which half-maximal degradation is achieved) and Dmax (maximum percentage of degradation achieved) is reported, per exemplary PROTAC, in Table 13.
(§2) FIGS. 13A, 13B, 13C, and 13D. Exemplary compounds 50 and 46 degrade p38 isoforms in a manner that is rapid, sustained, and proteasome-dependent. (A) MDA-MB-231 cells were either pre-treated or not with the proteasome inhibitor epoxomicin (1 μM) or the neddylation inhibitor MLN4924 (1 μM) for 30 minutes and subsequently treated with either vehicle (DMSO), exemplary compound 50 (250 nM), or exemplary compound 46 (250 nM) for 6 hours. (B) Quantitative real-time PCR was performed after 24 hours of treatment with either vehicle (DMSO), exemplary compound 50 (250 nM), or exemplary compound 46 (250 nM) in MDAMB-231 cells. The dotted line represents DMSO-treated conditions standardized to a value of 1.0 and mRNA abundance (per treatment group) is represented as a foldchange relative to that value. Data is based on biological duplicates and is normalized to beta-tubulin. (C) Cycloheximide (CHX) chase assay. MDA-MB-231 cells were pre-treated with 100 μg/mL CHX for 1 hour prior to treating for the indicated times with either vehicle (DMSO), exemplary compound 50 (250 nM), or exemplary compound 46 (250 nM). Tubulin-normalized p38α and p38δ abundance values are reported beneath individual lanes. (D) MDA-MB231 cells were treated with either vehicle (DMSO), exemplary compound 50 (250 nM), or exemplary compound 46 (250 nM) for 24 hours before re-plating onto new plastic in fresh medium for an additional 24, 48, or 72 hours (“washout” conditions).
(§3) Cell culture. MDA-MB-231 and HeLa cells were obtained from the American Type Culture Collection (ATCC), cultured in RPMI-1640 (1×) and DMEM (1×) medium, respectively, containing 10% fetal bovine serum (FBS) and 1% penicillin-streptomycin and grown in a humidified incubator at 37° C. and 5% CO2.
(§4) Lysates were spun at 14,000×g for 10 minutes at 4° C. and supernatant was evaluated for protein content using a Pierce BCA Protein Assay (Thermo Fisher Scientific). […] Immunoblots were visualized using a Bio-Rad ChemiDoc imaging instrument and subsequently processed and quantified using the accompanying Bio-Rad ImageLab software. […]
(§5) Western blot data in FIGS. 13A, 13B, 13C, 11A, 11B, and 17A were quantified by using the band feature in Image Lab (Bio-Rad), and duplicate values were averaged and analyzed in Graphpad Prism. […]

[2] = biological target: T2, p38δ (Homo sapiens, UniProt O15264); assay: as above; format: cell-based
T2 construct: endogenous in cells; host or cells: MDA-MB-231 (intact cells for degradation; cleared cell lysate for CETSA)
T2 sequence (O15264 1-365): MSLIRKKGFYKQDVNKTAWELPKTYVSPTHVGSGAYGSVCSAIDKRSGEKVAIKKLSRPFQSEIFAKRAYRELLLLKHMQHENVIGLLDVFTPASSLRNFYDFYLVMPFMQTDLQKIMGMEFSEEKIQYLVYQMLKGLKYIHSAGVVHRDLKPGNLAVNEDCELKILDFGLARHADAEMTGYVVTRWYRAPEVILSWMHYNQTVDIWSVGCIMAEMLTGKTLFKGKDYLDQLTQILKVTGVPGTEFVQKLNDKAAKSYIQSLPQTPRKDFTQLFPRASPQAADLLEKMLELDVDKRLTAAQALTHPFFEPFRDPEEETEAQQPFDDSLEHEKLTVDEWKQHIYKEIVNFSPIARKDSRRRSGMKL
Procedure: as §1, §2, §3, §4, §5

Row | SMILES | DC50 [1] | DC50 ([2]; listed as compound 48) | DC50 ([2]; listed as compound 49)
1 | COc1cc2c(Oc3ccc(NC(=O)C4(C(=O)Nc5ccc(F)cc5)CC4)cc3F)ccnc2cc1OCCCOCCOCCC(=O)N[C@H](C(=O)N1C[C@H](O)C[C@H]1C(=O)NCc1ccc(-c2scnc2C)cc1)C(C)(C)C [Ex. 48, N-(3-fluoro-4-((7-(3-(2-(3-(((S)-1-((2S,4R)-4-hydroxy-2-((4-(4-methylthiazol-5-yl)benzyl)carbamoyl)pyrrolidin-1-yl)-3,3-dimethyl-1-oxobutan-2-yl)amino)-3-oxopropoxy)ethoxy)-propoxy)-6-methoxyquinolin-4-yl)oxy)phenyl)-N-(4-fluorophenyl)cyclopropane-1,1-dicarboxa-mide] | < 100 nM | < 100 nM | 
2 | COc1cc2c(Oc3ccc(NC(=O)C4(C(=O)Nc5ccc(F)cc5)CC4)cc3F)ccnc2cc1OCCOCCOCCC(=O)N[C@H](C(=O)N1C[C@H](O)C[C@H]1C(=O)NCc1ccc(-c2scnc2C)cc1)C(C)(C)C [Ex. 49, N-(3-fluoro-4-((7-(2-(2-(3-(((S)-1-((2S,4R)-4-hydroxy-2-((4-(4-methylthiazol-5-yl)benzyl)carba-moyl)pyrrolidin-1-yl)-3,3-dimethyl-1-oxobutan-2-yl)amino)-3-oxopropoxy)ethoxy)ethoxy)-6-methoxyquinolin-4-yl)oxy)phenyl)-N-(4-fluorophenyl)cyclopropane-1,1-dicarboxamide] | < 100 nM |  | < 100 nM
